Test system: P. falciparum NF54
Assay: In vitro microplate assay against P. falciparum NF54 (3H-hypoxanthine incorporation, erythrocytic stages)
Format: cell-based, Plasmodium falciparum
Conditions: selectivity index, L-6 cells vs P.f. NF54
Description: All newly synthesized compounds were tested for their antiplasmodial activity against the chloroquine-sensitive strain Plasmodium falciparum NF54. Cytotoxicity was determined using rat skeletal myofibroblasts (L-6 cells). As standards chloroquine and podophyllotoxin were used.
In vitro activity against erythrocytic stages of P. falciparum was determined with a ^3H-hypoxanthine incorporation assay, using the chloroquine sensitive NF54 strain [44]. Chloroquine (Sigma C6628) was used as standard. Test compounds were dissolved in DMSO at 10 mg/mL and added to parasite cultures incubated in RPMI 1640 medium without hypoxanthine, supplemented with HEPES (5.94 g/L, NaHCO3 (2.1 g/L), neomycin (100 U/mL), Albumax (5 g/L) and washed human red blood cells A^+ at 2.5% hematocrit (0.3% parasitemia). Serial drug dilutions of 11 3-fold dilution steps (covering a range from 100–0.002 µg/mL) were prepared. The 96-well plates were incubated at a humidified atmosphere at 37 °C; 4% CO2, 3% O2, 93% N2. After 48 h, 0.05 mL of ^3H-hypoxanthine (=0.5 µCi) was added to each well. The plates were incubated for another 24 h under the same conditions. […] The dried filters were inserted into a plastic foil with 10 mL of scintillation fluid and counted in a Betaplate liquid scintillation counter. IC50 values were determined from sigmoidal inhibition curves by linear regression using Microsoft Excel. […]

Row | SMILES | S.I. = IC50 (Cyt.)/IC50 (P.f. NF54)
1 | CCN(CC)CCCC(C)Nc1ccnc2cc(Cl)ccc12 (centres unmarked) [CQ, chloroquine, reference compound] | 9672
2 | CC(C)(C)OC(=O)N1CCN(c2ccccc2NC(=O)c2cccc(C(F)(F)F)c2Oc2ccc(F)cc2)CC1 [Compound 1, tert-Butyl-4-{2-[2-(4-fluorophenoxy)-3-(trifluoromethyl)benzamido]phenyl}piperazine-1-carboxylate] | 316.9

Reference: paper PMC8625693, “Synthesis and Structure-Activity Relationships of New 2-Phenoxybenzamides with Antiplasmodial Activity” (Pharmaceuticals, 2021)
